The record followed here is PMC11405683.

By UniProt entry, the sequences of proteins in these tests, tags left out. Residues count along the entry.
UniProt P20163, residues 18-657: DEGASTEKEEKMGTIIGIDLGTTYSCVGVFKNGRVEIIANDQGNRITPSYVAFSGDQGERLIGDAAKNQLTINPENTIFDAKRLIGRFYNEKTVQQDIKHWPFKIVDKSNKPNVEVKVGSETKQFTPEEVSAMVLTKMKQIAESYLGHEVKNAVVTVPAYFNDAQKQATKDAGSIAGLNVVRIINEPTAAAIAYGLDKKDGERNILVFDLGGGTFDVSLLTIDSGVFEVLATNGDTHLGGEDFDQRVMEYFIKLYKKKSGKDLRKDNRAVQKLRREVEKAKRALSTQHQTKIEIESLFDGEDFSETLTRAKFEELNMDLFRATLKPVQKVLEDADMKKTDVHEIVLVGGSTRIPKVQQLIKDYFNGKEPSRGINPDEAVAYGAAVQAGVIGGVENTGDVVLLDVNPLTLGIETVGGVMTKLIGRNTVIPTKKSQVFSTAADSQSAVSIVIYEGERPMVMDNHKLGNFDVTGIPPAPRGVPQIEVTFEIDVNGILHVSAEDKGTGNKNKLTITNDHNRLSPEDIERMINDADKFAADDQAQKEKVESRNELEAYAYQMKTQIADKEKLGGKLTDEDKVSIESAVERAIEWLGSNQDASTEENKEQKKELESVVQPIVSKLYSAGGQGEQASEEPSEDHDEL
UniProt P54811: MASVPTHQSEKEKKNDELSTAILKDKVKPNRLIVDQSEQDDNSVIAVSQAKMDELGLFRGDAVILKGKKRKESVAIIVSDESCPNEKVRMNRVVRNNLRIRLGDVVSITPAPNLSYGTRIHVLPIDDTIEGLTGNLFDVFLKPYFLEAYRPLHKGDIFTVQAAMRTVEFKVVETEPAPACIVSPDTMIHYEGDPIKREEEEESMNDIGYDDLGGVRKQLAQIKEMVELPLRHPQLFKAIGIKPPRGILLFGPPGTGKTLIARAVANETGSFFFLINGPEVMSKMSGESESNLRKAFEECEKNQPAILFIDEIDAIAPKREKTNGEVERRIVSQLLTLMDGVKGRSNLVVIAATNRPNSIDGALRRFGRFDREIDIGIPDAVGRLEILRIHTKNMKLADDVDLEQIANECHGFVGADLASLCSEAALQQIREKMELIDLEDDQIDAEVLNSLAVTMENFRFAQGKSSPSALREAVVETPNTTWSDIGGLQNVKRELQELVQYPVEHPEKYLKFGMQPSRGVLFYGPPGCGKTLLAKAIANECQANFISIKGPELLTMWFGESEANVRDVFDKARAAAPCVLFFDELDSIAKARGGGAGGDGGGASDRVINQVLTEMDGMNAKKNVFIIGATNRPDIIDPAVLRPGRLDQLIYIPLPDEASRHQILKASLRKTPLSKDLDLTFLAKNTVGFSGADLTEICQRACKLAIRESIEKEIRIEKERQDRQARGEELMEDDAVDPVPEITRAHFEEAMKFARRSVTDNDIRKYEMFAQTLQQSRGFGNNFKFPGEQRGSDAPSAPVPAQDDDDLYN

Results are given in words; binding and its absence hold for the method and conditions named. In cells and extracts the contact can be indirect. Some entries that bind do so weakly or less than the wild type. Sequences can lack the tags named with a protein.

In one test the target is HSP-4::GFP (C. elegans) (UniProt P20163). Nature of the test: co-IP; HEK293T cells co-transfected; lysis buffer 150 mM NaCl, 50 mM Tris pH 7.4, 0.5% Triton X-100; HSP-4::GFP held on GFP-Trap magnetic beads at 4 °C overnight, five washes, acidic glycine elution; anti-Flag blot for the partner.
The target of test [1] is P97(CDC-48.1)::GFP::HA::6×His (C. elegans) (UniProt P54811). The test can be described thus: co-IP; HEK293T cells co-expressing TRA-2 and P97::GFP::HA::6×His, with or without MG132 (10 μM, 8 h); P97 held on GFP-Trap beads, five washes; anti-Flag blot for TRA-2.

B1: TRA-2::Flag::HA (receptor, UniProt P34709 32-1475)
chain: IDYQEKSIFPSFVSQGFFETRTNNEEYIIEKIAQTQENGVDMRSTLHFTQHGYLLNNISNLKIKFRQKTYTLNDVCFKPHITIFQQSSSSDQNEYPHYIQRLLLEMQRLSPCLIVTPLNCFYDIYRIHGEISNWNKNTDFLNRRLRNSYIEAIGENDERPYVKSNYGPSLIKSWADHMFDLPSKSFTNSTKDALFQKIKLWLLSIEPRQKTCAASIHSCDTPLDSEHYFNICTDMQSVDNFAEKKTKFKLEDVDEEFAMNLDCVDDQEQFIEWMQELEIRKMYSHVTEKPDYPNVVNQTCDKIFHDLNSTGIEFFDGSRSFSSTKSQFDTMQTEIVLLTPEMLLSAMQHSDFVNGFESIWTIEKAEELIHEFRLALKEETEKFKENRMSKMIRVTSRVLDNTVTTKLQSFSEKQTIHFVVNVHSLIVILFTIFVWSGAPLRSAFMFFVRDALTCLLFCFVCSTDGVIVLDTELIKYIIVLTLANLYFTTRSSFCTERLSRCIQREKRFPINSNFASLITVDTMTDSRQIQYFLSTVTKYQAAQDSYSNELFERFPKNWGCTSILIFPIVFVYWYFIDSNFDKICVSVLPSFCLAAGEELFAKNMFWKEREAMQAKQRLENEEQAESITGSSLEKLFAGNKPVSNTDKANIVKKSSIIRNQKPCLQDLSPGTYDVSNFMKYPHQASRIFREKIIGLYLRILKLRTLGVILCIPAILLIVISIGLLFIPVKRETLHTDSKQDDIFIEFEIFNFSTNWKIVNQNLKQFSEDIESIGTLYTISNWQKSFERFEQETNKNASAEWNILFKWINDEPINSAVTLFSEKSSGNQTIANPFKFRLRYGFDAKNETTVIEIVQKIDELLSKCSKNLSPKAVGVLYEHYHRIAVVWNLFAFNQLTTAGIFIILLSIITFIFAITPTIKATFLFSLLVVGTQIEVAALVHLFSLDHHQIYTNLALFAGFLAAWDPFCALLRYRRRILYKSETRRTPELASKRRVLLPIVATADIAQFFVLLITAFSILAIICSIVPELNIFFVPTVILIVIQIVAVFNSIIVSIATKQMFESEVRHYLHRDLRGSTTAVRVYNLVQKQRLASSLDEPQVELDEFSIKRSSPPCRYYAPPPKYSCKKRSRSSDEDEDSDPNQPGPSNRRSPKTGNKRVRGNGDNTELYIPNRYELIVSGKSVGGNTSAAWNGPGSTLEQNMNALEECFELGVDEYDFDEHDGDEGCELVQDMLDRERNLMNKRSTAQRRESRNIEKMKKSQENLDKEKSEEKISESKKNQDDSIESPNLPGTPANLPVDEPLPPVGRLYIVEHVLPEEYRRDPLTEPPSMEDCIRAHSDPNLPPHPRADQYPASFTRPMVEYCEDIYWTHRTGQLPPGLQVPRRPYDYYHITERTPPPEDLNWVPPAESPPIPIPQQAFDLLEERRRNHREQQDEAREGDLSDPEV
Consider B1, for which the binding entry (with HSP-4::GFP (C. elegans); in test [1]) was “binds” each time.

B2: 3×Flag::FEM-3 (protein, UniProt P34691 1-388)
chain: MEVDPGSDDVEADRETRAQKLKLKRNVKFRAQMRRFDEYCGVTNLTVDDLNWPLISGIPLQRQRLTGATYYDDSLLDQNPWDEFSIDRFLEITSIQLITAGAGYERNDEITRFVFQRTMKTIVTYCNFMYDLARRNGKVQITRFELQDLIHRDEFRFYMYFRQFLPNPDPNCTAFSNHYTSLLHTLYFNIPGMPQFWNNSQMYNYAATRGQRLVQNIAAFYPPEYFWNEDESKYHTTFVVPRGTEFSKFYARRFHEALGMPPLENEIITVLDWLAKLCILEIVYHTTIWCDITGFGGLPRIEHYRLAMENVEDIIFDLAIDDFSISRLQLQISPFEISRYSPLDVSGYYETIKRKKDIEEYQNRFYEVHYSDDVRIMNVYATDCSRKR
Take B2: the binding entry with HSP-4::GFP (C. elegans) is listed as “no binding”.
